Our source for the cell number change and AC50 values is PubChem BioAssay AID2685 (National Center for Advancing Translational Sciences (NCATS), 2010).

The assay is described as follows: qHTS Assay for Lipid Storage Modulators in Drosophila S3 Cells.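 As to cell number change: cells counted by Cell Tracker Red CMTPX staining in the red channel.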 As to conditions: BODIPY lipid droplet fluorescence, 18-24 h; for cell number change: measured here: cell count max response, cells fed with added oleic acid. Put shortly:
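Drosophila S3 cells got compounds at several concentrations plus oleic acid (400 uM solution). Laser-scanning cytometry with 488 nm excitation read lipid droplets at 500-530 nm and cells at 575-640 nm. Percent activity was relative to 20 uM Triacsin C.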
A general note: In qHTS, concentration-response curves come from the screen itself.

Setting [1] is: measured here: lipid fluorescence (Fed channel) AC50, cells fed with added oleic acid.
[2] abbreviates: measured here: cell number channel AC50, cells fed with added oleic acid.

Some of the results follow. Further columns of the screen follow, without active or inactive calls. Compounds called inactive in the main read-out are mostly missing here. Words in brackets tell the shape of the fitted curve; partial curves, single points and poor fits give uncertain potencies.

Regarding `Cc1c(NC(=O)Cc2cccs2)cccc1[N+](=O)[O-]`, the cell number change is -12.5%.

For `Cc1ccc(-c2nc(CNC(=O)c3cc(C)on3)cs2)cc1`, the cell number change was -10.8%. For the same compound, the AC50 – broadly, the concentration giving half of the maximal activity seen – under setting [1] was 29.1 µM [falling, single point].

For the compound `COc1cccc(CN2CC(C(=O)NCCC3=CCCCC3)CCC2=O)c1` (stereo unspecified), the cell number change is -9.23%. Moreover, under setting [1], the AC50 is 6.51 µM [rising, single point].

As to `COc1cc(Cl)c(C)cc1NC(=O)CCN1C(=O)NC(C)(C)C1=O`, the cell number change was -12.9%.

With `O=c1ccc(-c2nc3cc(Cl)ccc3n2Cc2ccccc2)c[nH]1`, the cell number change is 13.6%. Under setting [1], the AC50 was 20.6 µM [rising, single point].

With `CCOc1ccc2nc(SCC(=O)NCc3ccc(S(N)(=O)=O)cc3)sc2c1`, the cell number change was -21.2%. The AC50 under setting [1] is 18.4 µM [falling, single point].

As to `CCOc1ccc(NC(=O)c2nn(-c3ccc(OC)cc3OC)c(=O)c3ccccc23)cc1`, the cell number change was -20.5%. Moreover, the AC50 under setting [1] is 6.51 µM [rising, partial curve, poor fit].

Take `CC(=O)NC1(C(F)(F)F)NC(=O)N(C2CCCCC2)C1=O` (stereo unspecified): the cell number change was -6.43%.

For `Cc1nc2ccc(NC(=O)Cc3cccc(F)c3)cc2s1`, the cell number change came to 67.9%. In addition, the AC50 under setting [2] was 29.1 µM [rising, partial curve, poor fit].

In the case of `COc1ccccc1OCC(=O)/C=C1/N(C)c2ccccc2C1(C)C`, the cell number change is -132%. In addition, the AC50 under setting [2] was 18.4 µM [falling, single point].

For `COc1cccc(-c2nn(-c3ccccc3)cc2C(=O)O)c1`, the cell number change is -24.2%. Under setting [2], the AC50 was 0.461 µM [falling, full curve, poor fit]. The concentration at half-maximal activity (AC50) under setting [1] was 0.146 µM [falling, full curve, poor fit].

On to `O=C(COc1ccccc1)Nc1ccc(N2CCCCC2)cc1`, for which the cell number change was determined as 93.5%. Also, the AC50 under setting [2] is 18.4 µM [rising, partial curve].

As to `O=C(Cc1ncc(C(F)(F)F)cc1Cl)NCCc1ccccc1`, the cell number change was -9.52%. Further, the AC50 under setting [2] is 3.66 µM [falling, single point].

Regarding `CC(=O)NCCn1ccc2ccccc21`, the cell number change is -173%. Further, the AC50 under setting [2] was 29.1 µM [falling, single point].

With `Cc1ccc(C(=O)CSc2ncn[nH]2)cc1`, the cell number change was 1.47%. Moreover, the AC50 under setting [1] was 0.58 µM [falling, single point].

For `CCc1noc(C)c1C(=O)Nc1cc(S(=O)(=O)N(CC)CC)ccc1N1CCOCC1`, the cell number change came out at 11%. For the same compound, the AC50 under setting [1] is 8.2 µM [rising, partial curve, poor fit].

In the case of `Cc1nn(-c2ccccc2)c(Cl)c1C(=O)Nc1ccccc1`, the AC50 under setting [1] is 3.26 µM [rising, partial curve].

In the case of `CN(C)S(=O)(=O)c1ccc(N2CCN(S(=O)(=O)c3ccc(F)cc3)CC2)c(Cl)c1`, the cell number change was -25.4%. Also, the half-maximal activity concentration (AC50) under setting [2] was 0.00517 µM [falling, full curve, poor fit]. Also, the AC50 under setting [1] is 0.058 µM [falling, full curve, poor fit].

Turning to `CCc1nnc(NC(=O)CSc2nnc(Cc3cccn3C)n2C)s1`, the cell number change is -17.6%. In addition, under setting [2], the AC50 is 0.00411 µM [falling, full curve, poor fit]. Further, the AC50 under setting [1] was 0.82 µM [falling, full curve].

`COC(=O)c1cc(S(=O)(=O)NCC2CCN(Cc3ccccc3F)CC2)c[nH]1`: the cell number change is -27%.

For the compound `CCc1c(C)nc2ncnn2c1N1CCC(C(=O)Nc2ccc(C)cc2)CC1`, the cell number change is -3.47%. Under setting [1], the AC50 was 0.461 µM [falling, full curve].

As to `COCCc1ncc(CN2CCC(C(=O)Nc3cccc(-c4cscn4)c3)CC2)cn1`, the cell number change is -28.1%. Moreover, under setting [1], the AC50 is 18.4 µM [falling, single point].

Take `COc1cc(OC)cc(C(C(=O)NCc2ccccc2)N(Cc2ccco2)C(=O)c2ccno2)c1` (stereo unspecified): the cell number change was 5.79%. For the same compound, the AC50 under setting [2] is 1.84 µM [rising, partial curve, poor fit].

Turning to `Cc1ccc(Sc2nnc(-c3ccccc3)cc2C#N)cc1`, the cell number change stood at 57%. In addition, under setting [2], the AC50 is 1.64 µM [rising, full curve]. For the same compound, the AC50 under setting [1] is 2.59 µM [rising, partial curve].

Turning to `O=C1CC(c2ccc(F)cc2)Cc2nc(N3CCN(c4ccccc4)CC3)ncc21` (stereo unspecified), the cell number change was -21.1%. Also, the AC50 under setting [1] was 0.58 µM [rising, single point].

`CCOC(=O)C1=C(C)NC(C)=C(C(=O)OCC)C1c1ccc(O)cc1`: the cell number change was -6.68%. Further, under setting [2], the AC50 is 0.146 µM [falling, full curve, poor fit].

As to `O=C(O)/C=C/c1ccccc1Oc1ccc(Cl)cc1Cl`, the cell number change was determined as 51.1%. In addition, under setting [2], the AC50 was 29.1 µM [rising, single point]. Besides, the AC50 under setting [1] is 29.1 µM [rising, single point].

With `COc1ccccc1/C=N/N1CCN(Cc2ccccc2Cl)CC1`, the cell number change was 14.6%. Moreover, the AC50 under setting [2] was 0.00411 µM [rising, full curve, poor fit]. The AC50 under setting [1] was 29.1 µM [rising, single point].

For the compound `Cc1nc2ccc(NC(=O)c3ccc(C)c(S(=O)(=O)N4CCOCC4)c3)cc2s1`, the cell number change is -10.3%. Further, the AC50 under setting [2] is 1.03 µM [rising, partial curve].

Consider `COC(=O)c1ccc(NC(=O)c2cn(-c3ccccc3)nc2-c2ccncc2)cc1`, for which the AC50 by setting is: under setting [2], 2.31 µM [rising, partial curve]; under setting [1], 2.31 µM [rising, partial curve].

Turning to `Cc1ccc(C(=O)Nc2ccc3c(c2)ncn3C)cc1`, the cell number change came to 3.17%. Besides, under setting [1], the AC50 was 32.6 µM [rising, single point].

As for `CC1CCCC(NC(=O)CSc2ccc(F)cc2)C1C` (stereo unspecified), the AC50 under setting [2] was 0.13 µM [rising, full curve, poor fit].

With `COc1ccc(-c2noc(CNC(=O)CCN3C(=O)[C@H]4CC=CC[C@H]4C3=O)n2)cc1`, the cell number change turned out to be 17.9%. The concentration at half-maximal activity (AC50) under setting [2] is 1.16 µM [rising, full curve, poor fit]. Further, the AC50 under setting [1] was 29.1 µM [rising, single point].

For the compound `O=C(NNC(=O)C12CC3CC(CC(C3)C1)C2)c1ccncc1`, the cell number change was 22.2%. Further, under setting [2], the AC50 was 0.146 µM [rising, full curve, poor fit].

With `O=C(O)c1ccc(S(=O)(=O)N2CCSCC2)cc1`, the cell number change amounted to 12.8%.

Consider `COc1ccc(C(=O)NC2CCN(C(=O)NCc3ccccc3)CC2)cc1`, for which the cell number change was determined as 11.7%. Moreover, the AC50 under setting [2] is 0.092 µM [rising, full curve, poor fit].

For `[N-]=[N+]=NC(c1ccccc1)c1nc2ccccc2[nH]c1=O` (stereo unspecified), the cell number change is -2.72%. The AC50 under setting [1] is 11.6 µM [falling, partial curve].

As for `CN=C1c2ccccc2CN1c1cccc(C(=O)OC)c1`, the cell number change is -11.1%. Further, under setting [1], the AC50 was 25.9 µM [rising, single point].
